No constants are given. Whether binding was seen depends on the method and setting. In cells and extracts the contact can be indirect. Some results given as binding are weak or reduced against the parent protein; the word gives no strength.
Columns and labels:
[1] = target: full-length mouse SEL1L (SEL1L-HA and SEL1L-FLAG) (mouse) (UniProt Q9Z2G6); assay: co-IP; HEK293T co-transfected; lysis in 50 mM Tris pH 7.4, 150 mM NaCl, 0.1% Triton X-100, 5% glycerol; IP anti-FLAG and blot anti-HA (Fig. 4A) or IP anti-HA and blot anti-FLAG (Fig. 4D)
[2] = target: full-length mouse SEL1L (SEL1L-HA and SEL1L-FLAG) (mouse) (UniProt Q9Z2G6); assay: co-IP; competition: HEK293T co-transfected with SEL1L-HA, SEL1L-FLAG and increasing doses of a KDEL-tagged SEL1L fragment; IP anti-FLAG, blot anti-HA (Fig. 4E, F)

By UniProt entry, the sequences of proteins in these tests, tags left out. Where a name states a change or a piece, a line headed by the entry shows the natural chain unless it says otherwise. Chains listed by the source or under a name are the forms on record and can include a tag or linker.
UniProt Q9Z2G6: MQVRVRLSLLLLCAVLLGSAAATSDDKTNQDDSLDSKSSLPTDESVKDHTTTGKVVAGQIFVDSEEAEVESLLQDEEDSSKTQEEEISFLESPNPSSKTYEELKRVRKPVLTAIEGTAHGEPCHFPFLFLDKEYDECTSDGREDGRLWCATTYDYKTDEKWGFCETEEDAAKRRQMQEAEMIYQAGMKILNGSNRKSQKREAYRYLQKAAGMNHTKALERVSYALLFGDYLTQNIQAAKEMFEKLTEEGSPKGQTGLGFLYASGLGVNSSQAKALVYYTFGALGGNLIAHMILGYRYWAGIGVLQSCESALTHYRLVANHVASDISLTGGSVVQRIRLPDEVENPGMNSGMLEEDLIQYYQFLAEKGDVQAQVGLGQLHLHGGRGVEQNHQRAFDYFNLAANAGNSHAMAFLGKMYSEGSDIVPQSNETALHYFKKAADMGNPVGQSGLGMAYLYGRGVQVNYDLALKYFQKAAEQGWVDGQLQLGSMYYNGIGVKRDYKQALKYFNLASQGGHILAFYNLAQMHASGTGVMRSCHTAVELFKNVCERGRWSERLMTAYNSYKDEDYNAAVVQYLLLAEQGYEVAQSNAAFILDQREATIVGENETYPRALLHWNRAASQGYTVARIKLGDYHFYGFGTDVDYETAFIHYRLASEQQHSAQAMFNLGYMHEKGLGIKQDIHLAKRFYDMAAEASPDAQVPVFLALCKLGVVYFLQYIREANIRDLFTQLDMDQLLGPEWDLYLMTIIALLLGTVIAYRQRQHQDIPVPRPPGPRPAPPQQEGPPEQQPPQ
SEL1L^cent-KDEL (SEL1L^cent-FLAG-KDEL, SEL1L^cent-HA-KDEL) (Q9Z2G6, form named): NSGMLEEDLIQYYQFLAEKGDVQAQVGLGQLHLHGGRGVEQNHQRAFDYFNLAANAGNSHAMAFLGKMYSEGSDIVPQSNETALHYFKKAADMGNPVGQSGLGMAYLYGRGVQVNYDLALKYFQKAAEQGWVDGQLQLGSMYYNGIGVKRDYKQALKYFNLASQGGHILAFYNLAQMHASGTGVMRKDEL

Row | binding [1] | binding [2] | Substance
1 | binds |  | SEL1L^cent expressed in HEK293T behind the SEL1L signal peptide (no KDEL) (from UniProt Q9Z2G6 348-533) (domain or fragment)
2 | binds |  | SEL1L^cent-KDEL (SEL1L^cent-FLAG-KDEL, SEL1L^cent-HA-KDEL) (from UniProt Q9Z2G6 348-533) (domain or fragment)
3 | binds | binds | full-length mouse SEL1L (SEL1L-HA and SEL1L-FLAG) (from UniProt Q9Z2G6 22-790)
